This note sets out measurements from patent US20060105378.

By UniProt entry, the sequences of proteins in these tests, tags left out. Residues count along the entry.
UniProt P24821, 23-2201: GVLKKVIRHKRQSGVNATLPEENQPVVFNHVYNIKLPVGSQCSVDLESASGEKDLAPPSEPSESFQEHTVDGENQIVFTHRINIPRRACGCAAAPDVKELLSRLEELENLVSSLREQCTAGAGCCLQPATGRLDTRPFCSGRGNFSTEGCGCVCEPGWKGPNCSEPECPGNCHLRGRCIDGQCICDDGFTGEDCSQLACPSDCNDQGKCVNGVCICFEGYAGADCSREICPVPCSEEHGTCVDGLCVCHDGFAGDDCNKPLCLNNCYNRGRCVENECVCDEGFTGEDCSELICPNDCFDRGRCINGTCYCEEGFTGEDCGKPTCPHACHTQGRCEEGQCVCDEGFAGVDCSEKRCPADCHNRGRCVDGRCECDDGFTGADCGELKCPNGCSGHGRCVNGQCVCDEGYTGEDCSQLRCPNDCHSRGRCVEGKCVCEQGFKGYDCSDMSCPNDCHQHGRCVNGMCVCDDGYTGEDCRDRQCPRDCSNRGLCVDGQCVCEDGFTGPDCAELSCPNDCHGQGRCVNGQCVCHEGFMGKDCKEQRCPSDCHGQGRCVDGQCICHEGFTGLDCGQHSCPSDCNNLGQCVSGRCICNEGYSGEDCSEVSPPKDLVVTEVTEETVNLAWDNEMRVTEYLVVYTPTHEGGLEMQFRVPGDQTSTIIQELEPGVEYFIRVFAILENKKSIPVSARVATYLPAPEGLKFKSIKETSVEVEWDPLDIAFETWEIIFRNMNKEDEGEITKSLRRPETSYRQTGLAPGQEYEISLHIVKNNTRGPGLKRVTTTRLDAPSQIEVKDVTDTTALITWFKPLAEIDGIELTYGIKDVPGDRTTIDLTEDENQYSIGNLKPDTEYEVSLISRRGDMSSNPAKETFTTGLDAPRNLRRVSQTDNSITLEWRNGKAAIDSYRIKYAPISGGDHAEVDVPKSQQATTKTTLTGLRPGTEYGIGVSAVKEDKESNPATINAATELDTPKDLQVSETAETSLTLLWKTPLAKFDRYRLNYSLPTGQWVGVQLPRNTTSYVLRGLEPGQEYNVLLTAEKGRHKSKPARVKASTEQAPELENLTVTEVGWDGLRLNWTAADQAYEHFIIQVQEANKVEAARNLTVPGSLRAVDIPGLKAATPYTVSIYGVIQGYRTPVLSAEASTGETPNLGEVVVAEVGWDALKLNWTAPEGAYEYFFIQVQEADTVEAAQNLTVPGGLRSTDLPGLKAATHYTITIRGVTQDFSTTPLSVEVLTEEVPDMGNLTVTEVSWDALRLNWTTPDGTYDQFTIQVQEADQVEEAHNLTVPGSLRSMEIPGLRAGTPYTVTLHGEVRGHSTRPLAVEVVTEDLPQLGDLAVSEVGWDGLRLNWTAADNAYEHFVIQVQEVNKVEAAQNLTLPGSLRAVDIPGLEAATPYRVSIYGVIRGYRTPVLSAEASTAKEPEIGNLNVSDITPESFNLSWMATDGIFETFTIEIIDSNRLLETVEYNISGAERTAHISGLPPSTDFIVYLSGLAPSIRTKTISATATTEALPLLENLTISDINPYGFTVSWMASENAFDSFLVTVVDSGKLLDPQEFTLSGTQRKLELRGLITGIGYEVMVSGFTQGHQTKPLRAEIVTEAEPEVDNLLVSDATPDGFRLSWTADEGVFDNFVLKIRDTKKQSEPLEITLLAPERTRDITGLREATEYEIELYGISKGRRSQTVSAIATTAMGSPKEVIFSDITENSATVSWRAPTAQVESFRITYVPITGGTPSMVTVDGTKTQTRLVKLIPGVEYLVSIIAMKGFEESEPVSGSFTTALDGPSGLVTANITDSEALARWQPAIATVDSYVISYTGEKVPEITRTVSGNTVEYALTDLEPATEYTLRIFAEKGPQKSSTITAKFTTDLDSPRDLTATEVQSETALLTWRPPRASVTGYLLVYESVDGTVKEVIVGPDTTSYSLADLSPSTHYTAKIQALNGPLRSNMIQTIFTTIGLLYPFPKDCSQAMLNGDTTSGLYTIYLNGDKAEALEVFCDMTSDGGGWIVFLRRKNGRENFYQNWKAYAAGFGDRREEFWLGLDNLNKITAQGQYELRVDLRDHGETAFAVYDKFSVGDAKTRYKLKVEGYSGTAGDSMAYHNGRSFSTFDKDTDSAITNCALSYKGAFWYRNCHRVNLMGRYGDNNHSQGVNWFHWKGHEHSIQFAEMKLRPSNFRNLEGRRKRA

Negatives hold for the conditions tested.

The series has as its target Tenascin-C (Homo sapiens) (UniProt P24821). Kind of series: filter binding. To be noted: 2'-F all C and U; 2'-OMe G28,G31,G34; 3'-3' dT cap; listed as nb in Kd column; purified native protein; protein details: Chemicon (Temecula, CA); variant of TN9.4.

In the case of “GGGAGGACGAUGCGGAACAAUGCACUCGUCGCCGUAAUGGAUGUUUUGCUCCCUG [TN9.4M4]”, the binding result is “no binding”.
